# Assay results from the supplement of paper PMC10849652.
# Sequences of proteins named here, by UniProt entry; tags and fusion partners are left off. A change or cut given only in a name is not applied to a line headed by its entry.
# UniProt Q96T51: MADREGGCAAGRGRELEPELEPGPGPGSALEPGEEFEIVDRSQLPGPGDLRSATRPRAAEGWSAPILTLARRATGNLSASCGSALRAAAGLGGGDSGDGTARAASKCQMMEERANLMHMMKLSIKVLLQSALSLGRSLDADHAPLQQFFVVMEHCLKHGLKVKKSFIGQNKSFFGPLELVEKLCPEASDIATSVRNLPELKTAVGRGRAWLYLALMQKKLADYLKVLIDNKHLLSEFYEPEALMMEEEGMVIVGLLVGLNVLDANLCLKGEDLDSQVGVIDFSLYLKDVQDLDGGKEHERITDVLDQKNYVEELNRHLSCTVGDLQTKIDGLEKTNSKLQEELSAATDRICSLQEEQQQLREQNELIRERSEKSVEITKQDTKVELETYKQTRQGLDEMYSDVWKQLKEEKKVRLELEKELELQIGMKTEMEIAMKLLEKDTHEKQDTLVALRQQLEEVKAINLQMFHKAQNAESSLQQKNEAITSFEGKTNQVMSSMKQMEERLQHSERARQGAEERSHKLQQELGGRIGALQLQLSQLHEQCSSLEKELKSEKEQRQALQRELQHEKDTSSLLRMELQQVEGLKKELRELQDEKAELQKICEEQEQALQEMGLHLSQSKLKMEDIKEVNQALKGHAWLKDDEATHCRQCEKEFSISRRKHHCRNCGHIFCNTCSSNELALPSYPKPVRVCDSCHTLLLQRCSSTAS
# UniProt Q9NTJ5: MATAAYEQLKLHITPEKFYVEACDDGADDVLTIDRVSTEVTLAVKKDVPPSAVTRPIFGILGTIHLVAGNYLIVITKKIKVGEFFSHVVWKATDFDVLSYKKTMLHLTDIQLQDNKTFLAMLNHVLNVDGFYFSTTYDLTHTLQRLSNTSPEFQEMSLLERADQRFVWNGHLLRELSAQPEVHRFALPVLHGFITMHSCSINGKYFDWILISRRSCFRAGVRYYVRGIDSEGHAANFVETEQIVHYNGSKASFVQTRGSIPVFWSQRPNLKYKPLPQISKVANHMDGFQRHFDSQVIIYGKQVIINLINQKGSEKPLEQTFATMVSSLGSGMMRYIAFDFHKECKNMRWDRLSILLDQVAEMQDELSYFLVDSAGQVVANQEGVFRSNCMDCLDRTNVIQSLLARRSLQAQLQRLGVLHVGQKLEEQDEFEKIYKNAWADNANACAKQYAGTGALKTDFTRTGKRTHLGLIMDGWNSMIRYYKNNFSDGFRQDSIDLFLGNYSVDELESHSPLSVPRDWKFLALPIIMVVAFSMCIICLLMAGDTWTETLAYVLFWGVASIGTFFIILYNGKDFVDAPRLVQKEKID
# UniProt O00767: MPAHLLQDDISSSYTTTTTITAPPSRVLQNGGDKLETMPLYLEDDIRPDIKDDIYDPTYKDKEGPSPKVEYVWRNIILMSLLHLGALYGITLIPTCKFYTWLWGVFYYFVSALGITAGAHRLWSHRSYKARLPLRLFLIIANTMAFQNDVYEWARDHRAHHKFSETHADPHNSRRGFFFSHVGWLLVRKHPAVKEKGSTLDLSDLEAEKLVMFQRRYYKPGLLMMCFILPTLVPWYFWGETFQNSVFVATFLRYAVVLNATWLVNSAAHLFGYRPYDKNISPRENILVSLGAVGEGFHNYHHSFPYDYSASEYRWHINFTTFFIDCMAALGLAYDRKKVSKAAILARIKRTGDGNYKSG
# UniProt Q9NSI8: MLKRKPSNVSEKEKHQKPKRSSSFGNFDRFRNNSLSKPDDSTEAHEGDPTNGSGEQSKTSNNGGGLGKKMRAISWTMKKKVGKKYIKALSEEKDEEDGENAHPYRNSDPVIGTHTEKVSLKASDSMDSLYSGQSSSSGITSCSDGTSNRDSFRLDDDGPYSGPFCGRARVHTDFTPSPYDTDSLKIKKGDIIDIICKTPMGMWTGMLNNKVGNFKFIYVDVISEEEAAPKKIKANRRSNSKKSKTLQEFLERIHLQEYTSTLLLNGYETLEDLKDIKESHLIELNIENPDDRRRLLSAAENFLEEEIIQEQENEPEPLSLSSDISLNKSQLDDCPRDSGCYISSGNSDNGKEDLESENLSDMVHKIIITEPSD
# UniProt Q8IZE3: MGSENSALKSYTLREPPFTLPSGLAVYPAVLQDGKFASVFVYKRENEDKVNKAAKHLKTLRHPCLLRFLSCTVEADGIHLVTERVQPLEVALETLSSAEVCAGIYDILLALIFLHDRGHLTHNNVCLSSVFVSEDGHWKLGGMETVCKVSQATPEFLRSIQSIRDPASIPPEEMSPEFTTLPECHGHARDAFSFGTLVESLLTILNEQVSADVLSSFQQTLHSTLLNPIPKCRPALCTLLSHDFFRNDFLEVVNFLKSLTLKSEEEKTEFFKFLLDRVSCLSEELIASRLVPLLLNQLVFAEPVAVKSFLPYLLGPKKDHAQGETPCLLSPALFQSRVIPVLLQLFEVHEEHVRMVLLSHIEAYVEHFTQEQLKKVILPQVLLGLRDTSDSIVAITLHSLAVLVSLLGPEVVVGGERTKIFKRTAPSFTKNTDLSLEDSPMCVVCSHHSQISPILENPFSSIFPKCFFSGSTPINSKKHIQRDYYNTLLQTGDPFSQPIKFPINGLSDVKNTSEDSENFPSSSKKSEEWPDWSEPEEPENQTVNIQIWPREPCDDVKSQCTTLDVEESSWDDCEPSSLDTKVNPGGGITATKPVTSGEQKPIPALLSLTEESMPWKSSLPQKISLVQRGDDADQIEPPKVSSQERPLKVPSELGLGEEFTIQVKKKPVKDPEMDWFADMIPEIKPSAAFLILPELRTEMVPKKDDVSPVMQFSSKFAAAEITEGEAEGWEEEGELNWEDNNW
# UniProt Q96EU6: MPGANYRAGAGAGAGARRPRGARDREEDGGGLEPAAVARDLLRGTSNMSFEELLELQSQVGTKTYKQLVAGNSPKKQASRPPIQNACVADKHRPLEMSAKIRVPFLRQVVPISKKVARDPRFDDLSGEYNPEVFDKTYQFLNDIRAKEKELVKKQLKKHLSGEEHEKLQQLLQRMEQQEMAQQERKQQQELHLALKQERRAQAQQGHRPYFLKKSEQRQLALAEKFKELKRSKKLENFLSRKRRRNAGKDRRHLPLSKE
# UniProt Q7L4I2: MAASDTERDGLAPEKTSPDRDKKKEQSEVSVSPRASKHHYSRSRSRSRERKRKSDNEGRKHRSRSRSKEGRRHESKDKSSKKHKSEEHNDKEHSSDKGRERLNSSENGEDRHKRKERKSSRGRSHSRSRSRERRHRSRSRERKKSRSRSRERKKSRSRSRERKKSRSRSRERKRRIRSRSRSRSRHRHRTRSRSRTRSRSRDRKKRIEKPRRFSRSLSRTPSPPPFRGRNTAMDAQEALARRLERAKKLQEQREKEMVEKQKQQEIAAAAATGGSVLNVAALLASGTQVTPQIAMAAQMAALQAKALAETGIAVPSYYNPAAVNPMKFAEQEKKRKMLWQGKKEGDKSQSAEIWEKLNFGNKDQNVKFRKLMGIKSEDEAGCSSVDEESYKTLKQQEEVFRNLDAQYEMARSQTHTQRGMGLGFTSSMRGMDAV
# UniProt Q14151: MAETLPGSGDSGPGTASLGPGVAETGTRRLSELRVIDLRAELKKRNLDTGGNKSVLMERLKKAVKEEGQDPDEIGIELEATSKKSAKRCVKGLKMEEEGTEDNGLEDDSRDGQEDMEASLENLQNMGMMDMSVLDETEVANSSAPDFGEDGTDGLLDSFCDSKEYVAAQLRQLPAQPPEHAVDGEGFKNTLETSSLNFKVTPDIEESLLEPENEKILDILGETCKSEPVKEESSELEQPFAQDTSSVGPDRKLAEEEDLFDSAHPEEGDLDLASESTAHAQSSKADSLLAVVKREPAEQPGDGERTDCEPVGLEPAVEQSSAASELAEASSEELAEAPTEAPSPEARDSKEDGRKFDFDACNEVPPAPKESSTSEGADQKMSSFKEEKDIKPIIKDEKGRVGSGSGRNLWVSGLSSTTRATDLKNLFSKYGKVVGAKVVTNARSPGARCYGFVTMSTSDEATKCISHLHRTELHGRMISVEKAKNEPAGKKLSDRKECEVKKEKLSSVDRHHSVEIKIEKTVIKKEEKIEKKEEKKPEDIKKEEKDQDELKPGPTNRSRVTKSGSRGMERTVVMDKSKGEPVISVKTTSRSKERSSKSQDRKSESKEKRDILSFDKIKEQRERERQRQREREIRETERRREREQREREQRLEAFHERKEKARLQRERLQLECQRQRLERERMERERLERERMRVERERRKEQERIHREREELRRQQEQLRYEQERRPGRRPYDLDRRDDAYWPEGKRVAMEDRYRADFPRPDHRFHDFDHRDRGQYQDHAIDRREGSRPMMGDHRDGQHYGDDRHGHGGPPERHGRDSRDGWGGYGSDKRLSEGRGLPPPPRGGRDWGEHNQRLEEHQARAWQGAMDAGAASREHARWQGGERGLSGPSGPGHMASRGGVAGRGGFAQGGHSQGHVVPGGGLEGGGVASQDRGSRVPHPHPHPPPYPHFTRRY
# UniProt Q5VUM1: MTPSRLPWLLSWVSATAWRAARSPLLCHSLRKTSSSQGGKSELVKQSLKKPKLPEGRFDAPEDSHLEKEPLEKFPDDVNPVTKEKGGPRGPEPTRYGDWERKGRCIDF
# UniProt Q8WXD2: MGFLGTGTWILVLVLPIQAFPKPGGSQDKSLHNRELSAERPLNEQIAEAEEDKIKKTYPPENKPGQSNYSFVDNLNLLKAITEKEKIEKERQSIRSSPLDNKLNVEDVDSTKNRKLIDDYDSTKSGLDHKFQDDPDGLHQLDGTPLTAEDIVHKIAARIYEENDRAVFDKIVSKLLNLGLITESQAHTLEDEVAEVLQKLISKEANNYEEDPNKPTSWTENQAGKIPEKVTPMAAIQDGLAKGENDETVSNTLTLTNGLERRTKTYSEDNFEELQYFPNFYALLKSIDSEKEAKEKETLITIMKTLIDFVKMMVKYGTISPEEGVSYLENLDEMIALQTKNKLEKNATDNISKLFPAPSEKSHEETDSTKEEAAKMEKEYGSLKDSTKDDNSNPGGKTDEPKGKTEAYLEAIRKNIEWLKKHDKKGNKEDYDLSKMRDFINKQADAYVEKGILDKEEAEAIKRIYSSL
# UniProt Q5JTH9: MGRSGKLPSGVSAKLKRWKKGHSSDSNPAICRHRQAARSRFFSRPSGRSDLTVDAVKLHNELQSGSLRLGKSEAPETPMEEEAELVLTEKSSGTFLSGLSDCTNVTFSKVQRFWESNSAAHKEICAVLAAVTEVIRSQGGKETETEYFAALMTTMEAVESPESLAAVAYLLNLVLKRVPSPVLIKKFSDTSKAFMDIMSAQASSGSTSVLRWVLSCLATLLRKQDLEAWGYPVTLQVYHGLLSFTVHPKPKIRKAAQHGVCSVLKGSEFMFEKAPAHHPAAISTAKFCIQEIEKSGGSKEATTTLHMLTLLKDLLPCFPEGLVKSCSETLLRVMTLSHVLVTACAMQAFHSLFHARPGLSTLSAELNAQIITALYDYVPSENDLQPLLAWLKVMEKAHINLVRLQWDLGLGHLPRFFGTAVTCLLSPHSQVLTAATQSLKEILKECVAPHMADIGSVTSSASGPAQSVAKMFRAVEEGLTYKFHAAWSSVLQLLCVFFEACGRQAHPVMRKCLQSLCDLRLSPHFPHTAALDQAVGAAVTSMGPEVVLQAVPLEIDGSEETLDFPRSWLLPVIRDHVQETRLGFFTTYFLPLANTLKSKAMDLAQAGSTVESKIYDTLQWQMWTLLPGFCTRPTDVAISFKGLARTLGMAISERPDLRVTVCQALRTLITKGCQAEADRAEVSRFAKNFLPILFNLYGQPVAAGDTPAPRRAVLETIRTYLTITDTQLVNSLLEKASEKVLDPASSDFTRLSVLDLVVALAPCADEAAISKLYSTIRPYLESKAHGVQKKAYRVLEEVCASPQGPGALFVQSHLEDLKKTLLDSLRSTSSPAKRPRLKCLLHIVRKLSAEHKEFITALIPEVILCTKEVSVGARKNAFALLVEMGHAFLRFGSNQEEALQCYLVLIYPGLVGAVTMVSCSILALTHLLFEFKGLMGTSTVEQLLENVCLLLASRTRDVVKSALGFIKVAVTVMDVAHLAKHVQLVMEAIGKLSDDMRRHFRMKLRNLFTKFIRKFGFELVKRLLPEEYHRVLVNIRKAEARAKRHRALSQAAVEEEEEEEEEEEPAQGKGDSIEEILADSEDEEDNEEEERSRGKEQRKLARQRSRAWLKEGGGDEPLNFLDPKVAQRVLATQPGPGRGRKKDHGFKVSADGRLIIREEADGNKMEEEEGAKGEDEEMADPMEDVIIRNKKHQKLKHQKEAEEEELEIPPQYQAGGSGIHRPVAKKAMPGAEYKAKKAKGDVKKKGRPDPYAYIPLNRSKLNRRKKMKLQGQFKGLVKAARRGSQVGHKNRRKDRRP
# UniProt P26447: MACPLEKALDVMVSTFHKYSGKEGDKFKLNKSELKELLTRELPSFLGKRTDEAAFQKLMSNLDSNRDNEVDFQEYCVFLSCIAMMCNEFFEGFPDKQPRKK
# UniProt P29034: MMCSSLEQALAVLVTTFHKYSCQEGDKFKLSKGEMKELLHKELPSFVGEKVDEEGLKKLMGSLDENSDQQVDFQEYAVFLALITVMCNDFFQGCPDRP
# UniProt P60903, whole entry, looked up: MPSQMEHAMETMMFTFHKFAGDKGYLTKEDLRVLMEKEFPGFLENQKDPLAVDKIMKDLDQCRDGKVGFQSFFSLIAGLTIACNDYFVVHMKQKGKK
# Some of the results follow.
# Compound: CC[C@H](C)[C@@H](C(=O)N[C@@H]([C@@H](C)O)C(=O)N[C@@H](CC(C)C)C(=O)[C@]1(CO1)C)NC(=O)[C@H]([C@@H](C)CC)N(C)C(=O)C [epoxomicin]
# Assay: log2 fold change, soluble protein after heating vs DMSO (PISA); higher = thermal stabilisation; K562 cells, 10 uM, 30 min; active = over 0.2 and 3.5 SD of the protein, either way, in both replicates (recomputed)
# Method in brief: (§1)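 K562 cells (2×10^6 cells/mL) were treated with 10 μM compound for 30 min, and aliquots were heated for 3 min over 48°C-58°C. Pooled aliquots were extracted in PBS with 0.5% NP-40 at 4°C, and the supernatant after 21,000xg for 90 min was measured by TMTpro 16plex LC-MS/MS with channel sums equalised. Reported thermal stability, relative to control samples and from duplicates, is a log2 fold change.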
row,Target,log2 fold change
1,SAAL1 (UniProt Q96ER3),inactive: 0.025
2,SDCBP isoform 2 (UniProt O00560),inactive: 0.056
3,RUFY1 (UniProt Q96T51),inactive: -0.015
4,RUNX1 isoform 8 (UniProt Q01196),inactive: -0.206
5,SACM1L (UniProt Q9NTJ5),inactive: 0.019
6,"SART3, A0A499FI31",inactive: 0.065
7,SCD (UniProt O00767),inactive: 0.109
8,SDHAF2 (UniProt Q9NX18),inactive: -0.057
9,SCAMP2 (UniProt O15127),inactive: 0.001
10,SAMSN1 isoform 3 (UniProt Q9NSI8),inactive: 0.018
11,SEC24A (UniProt O95486),inactive: 0.055
12,SCYL3 isoform 2 (UniProt Q8IZE3),inactive: 0.058
13,RRP36 (UniProt Q96EU6),inactive: -0.203
14,SCPEP1 (UniProt Q9HB40),inactive: 0.044
15,SEC31A (UniProt O94979),inactive: 0.034
16,SCAMP2 (UniProt H3BUB6),inactive: -0.157
17,SEC16A isoform 5 (UniProt O15027),inactive: -0.04
18,SCAF8 isoform 2 (UniProt Q9UPN6),inactive: 0.101

row,Target,log2 fold change
1,"SDHB, A0A087WWT1",inactive: -0.107
2,RSRC2 (UniProt Q7L4I2),inactive: 0.031
3,SAFB2 (UniProt Q14151),inactive: -0.246
4,RSL1D1 (UniProt O76021),inactive: -0.517
5,RSPRY1 (UniProt Q96DX4),inactive: 0.034
6,SDHC (UniProt Q99643),inactive: 0.205
7,SDHAF4 (UniProt Q5VUM1),inactive: -0.066
8,RTF2 (UniProt Q9BY42),inactive: 0.118
9,SEC23IP (UniProt Q9Y6Y8),inactive: -0.009
10,SCAF11 (UniProt Q99590),inactive: -0.074
11,SCCPDH (UniProt Q8NBX0),inactive: -0.024
12,RRP9 (UniProt O43818),inactive: -0.107
13,SCG3 (UniProt Q8WXD2),inactive: -0.119
14,SEC23A (UniProt Q15436),inactive: -0.016
15,SCAMP3 isoform 2 (UniProt O14828),inactive: 0.067
16,RRP12 (UniProt Q5JTH9),inactive: 0.054
17,RSRC1 (UniProt Q96IZ7),inactive: 0.083
18,SASH1 (UniProt O94885),inactive: -0.075

# Compound: CCn1c(C(=O)N(C2CC2)C2CC2)cc2c3c(ncn3C)c(Nc3cc(C)n(C)n3)nc21
# Assay: as above
# Method in brief: as §1
row,Target,log2 fold change
1,S100A4 (UniProt P26447),inactive: 0.023
2,S100A2 (UniProt P29034),inactive: -0.575
3,"SDHB, A0A087WWT1",inactive: 0.007

# Compound: CCn1cc(-c2ccnc3[nH]c(-c4cccc(CN(C)C)c4)cc23)c(-c2ccc(NC(=O)N(C)C)cc2)n1
# Assay: as above
# Method in brief: as §1
row,Target,log2 fold change
1,S100A10 (UniProt P60903),inactive: -0.056
2,SAAL1 (UniProt Q96ER3),inactive: 0.025
3,SDCBP isoform 2 (UniProt O00560),inactive: -0.234
4,RUFY1 (UniProt Q96T51),inactive: 0.06
5,RUNX1 isoform 8 (UniProt Q01196),inactive: -0.089
6,SACM1L (UniProt Q9NTJ5),inactive: -0.019
7,"SART3, A0A499FI31",inactive: -0.017
8,SCD (UniProt O00767),inactive: 0.036
9,SDHAF2 (UniProt Q9NX18),inactive: 0.06
10,SCAMP2 (UniProt O15127),inactive: 0.043
11,SAMSN1 isoform 3 (UniProt Q9NSI8),inactive: -0.065
12,SEC24A (UniProt O95486),inactive: 0.003
13,SCYL3 isoform 2 (UniProt Q8IZE3),inactive: -0.101
14,RRP36 (UniProt Q96EU6),inactive: 0.201
15,SCPEP1 (UniProt Q9HB40),inactive: -0.095
16,SEC31A (UniProt O94979),inactive: 0.018
17,SEC16A isoform 5 (UniProt O15027),inactive: -0.048
18,SCAF8 isoform 2 (UniProt Q9UPN6),inactive: 0.071

row,Target,log2 fold change
1,RUFY3 isoform 3 (UniProt Q7L099),inactive: 0.079
2,"SDHB, A0A087WWT1",inactive: 0.09
3,RSRC2 (UniProt Q7L4I2),inactive: -0.043
4,SAFB2 (UniProt Q14151),inactive: 0.203
5,RSL1D1 (UniProt O76021),inactive: 0.155
6,RSPRY1 (UniProt Q96DX4),inactive: -0.034
7,SDHC (UniProt Q99643),inactive: 0
8,RTF2 (UniProt Q9BY42),inactive: 0.012
9,SEC23IP (UniProt Q9Y6Y8),inactive: -0.057
10,SCAF11 (UniProt Q99590),inactive: 0.176
11,SCCPDH (UniProt Q8NBX0),inactive: -0.07
12,RRP9 (UniProt O43818),inactive: 0.136
13,SCG3 (UniProt Q8WXD2),inactive: 0.035
14,SEC23A (UniProt Q15436),inactive: -0.123
15,RRP12 (UniProt Q5JTH9),inactive: -0.057
16,RSRC1 (UniProt Q96IZ7),inactive: -0.021
17,SASH1 (UniProt O94885),inactive: 0.027
